Values of other authors in patent US11779768B2, “Protein activity modification” (Impulse Dynamics NV, priority 2004, dated 2023).

Molecular target: CaM kinase
Conditions: read-out: Inhibits CaM kinase IC50; advertised; cited from earlier work

For `CN[C@@H]1C[C@H]2O[C@@](C)([C@@H]1OC)n1c3ccccc3c3c4c(c5c6ccccc6n2c5c31)C(=O)NC4` [STAUROSPORIN], which IC50 is on record?
The IC50 was 20 nM.
